Test results from article PMC10786693.
Read-outs that look alike come from different tables or passages of the source. These are yes or no findings as the source states them, for the method shown. In cells and extracts the contact can be indirect. Here binding means that the protein was enriched with, or labelled near, the bait; the list need not be complete.

Amino acid sequences for entries named in this document (tags omitted). A change or cut given only in a name is not applied to a line headed by its entry. Residues count along the entry.
UniProt Q99758: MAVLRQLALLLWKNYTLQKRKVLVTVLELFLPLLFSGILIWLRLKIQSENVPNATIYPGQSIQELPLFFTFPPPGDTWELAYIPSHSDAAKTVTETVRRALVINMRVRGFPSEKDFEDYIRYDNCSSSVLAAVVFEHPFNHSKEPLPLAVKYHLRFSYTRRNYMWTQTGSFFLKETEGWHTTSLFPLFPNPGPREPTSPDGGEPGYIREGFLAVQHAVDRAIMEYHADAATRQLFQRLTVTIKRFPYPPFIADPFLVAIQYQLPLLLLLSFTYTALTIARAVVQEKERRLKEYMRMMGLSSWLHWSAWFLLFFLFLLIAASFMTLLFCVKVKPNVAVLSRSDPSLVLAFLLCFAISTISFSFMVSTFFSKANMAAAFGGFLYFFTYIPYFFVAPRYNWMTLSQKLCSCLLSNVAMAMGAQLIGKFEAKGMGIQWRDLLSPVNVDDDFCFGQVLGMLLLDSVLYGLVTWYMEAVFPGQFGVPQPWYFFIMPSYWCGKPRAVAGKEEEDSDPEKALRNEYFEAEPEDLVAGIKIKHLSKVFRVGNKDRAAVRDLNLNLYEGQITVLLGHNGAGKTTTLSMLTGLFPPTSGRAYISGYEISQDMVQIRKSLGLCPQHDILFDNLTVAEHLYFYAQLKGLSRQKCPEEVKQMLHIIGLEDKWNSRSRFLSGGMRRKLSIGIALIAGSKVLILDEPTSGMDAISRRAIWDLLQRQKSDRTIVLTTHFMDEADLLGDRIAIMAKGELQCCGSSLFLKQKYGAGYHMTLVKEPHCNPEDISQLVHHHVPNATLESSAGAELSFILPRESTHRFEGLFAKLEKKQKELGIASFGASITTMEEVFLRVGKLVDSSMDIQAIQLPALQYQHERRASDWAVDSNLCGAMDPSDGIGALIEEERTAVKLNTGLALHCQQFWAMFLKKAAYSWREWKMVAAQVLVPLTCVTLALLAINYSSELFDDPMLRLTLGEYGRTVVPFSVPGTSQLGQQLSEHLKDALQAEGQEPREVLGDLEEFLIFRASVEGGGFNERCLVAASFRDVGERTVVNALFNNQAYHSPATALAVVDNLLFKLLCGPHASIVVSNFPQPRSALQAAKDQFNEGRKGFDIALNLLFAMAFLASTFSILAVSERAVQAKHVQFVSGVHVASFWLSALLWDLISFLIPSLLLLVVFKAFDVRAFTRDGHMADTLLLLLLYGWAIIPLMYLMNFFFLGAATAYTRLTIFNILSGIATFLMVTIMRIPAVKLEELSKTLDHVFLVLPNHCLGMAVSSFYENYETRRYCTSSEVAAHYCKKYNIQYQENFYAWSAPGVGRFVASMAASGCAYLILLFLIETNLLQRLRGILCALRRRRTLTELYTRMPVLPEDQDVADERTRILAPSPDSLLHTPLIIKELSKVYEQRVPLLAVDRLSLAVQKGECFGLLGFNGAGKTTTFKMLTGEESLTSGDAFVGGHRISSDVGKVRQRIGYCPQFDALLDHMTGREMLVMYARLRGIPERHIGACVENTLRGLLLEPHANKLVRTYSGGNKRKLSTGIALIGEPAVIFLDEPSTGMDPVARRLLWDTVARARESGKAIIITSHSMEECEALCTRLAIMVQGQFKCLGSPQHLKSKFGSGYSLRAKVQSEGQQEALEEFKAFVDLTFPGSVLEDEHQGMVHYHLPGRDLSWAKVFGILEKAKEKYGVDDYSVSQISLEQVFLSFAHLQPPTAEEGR
UniProt P11166: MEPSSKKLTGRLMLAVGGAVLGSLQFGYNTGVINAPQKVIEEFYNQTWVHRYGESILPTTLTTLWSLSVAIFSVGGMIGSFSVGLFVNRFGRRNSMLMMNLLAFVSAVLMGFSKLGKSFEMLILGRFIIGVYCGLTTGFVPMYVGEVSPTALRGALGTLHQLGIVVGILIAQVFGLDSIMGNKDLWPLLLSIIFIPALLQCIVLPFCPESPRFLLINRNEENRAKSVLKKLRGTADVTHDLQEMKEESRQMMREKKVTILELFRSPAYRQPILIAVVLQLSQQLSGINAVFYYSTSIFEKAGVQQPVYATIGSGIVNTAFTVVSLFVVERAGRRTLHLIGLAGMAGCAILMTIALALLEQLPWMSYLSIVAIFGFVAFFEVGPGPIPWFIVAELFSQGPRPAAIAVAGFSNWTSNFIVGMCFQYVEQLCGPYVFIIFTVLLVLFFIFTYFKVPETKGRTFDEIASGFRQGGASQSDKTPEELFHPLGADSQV
UniProt P40189, residues 23-918: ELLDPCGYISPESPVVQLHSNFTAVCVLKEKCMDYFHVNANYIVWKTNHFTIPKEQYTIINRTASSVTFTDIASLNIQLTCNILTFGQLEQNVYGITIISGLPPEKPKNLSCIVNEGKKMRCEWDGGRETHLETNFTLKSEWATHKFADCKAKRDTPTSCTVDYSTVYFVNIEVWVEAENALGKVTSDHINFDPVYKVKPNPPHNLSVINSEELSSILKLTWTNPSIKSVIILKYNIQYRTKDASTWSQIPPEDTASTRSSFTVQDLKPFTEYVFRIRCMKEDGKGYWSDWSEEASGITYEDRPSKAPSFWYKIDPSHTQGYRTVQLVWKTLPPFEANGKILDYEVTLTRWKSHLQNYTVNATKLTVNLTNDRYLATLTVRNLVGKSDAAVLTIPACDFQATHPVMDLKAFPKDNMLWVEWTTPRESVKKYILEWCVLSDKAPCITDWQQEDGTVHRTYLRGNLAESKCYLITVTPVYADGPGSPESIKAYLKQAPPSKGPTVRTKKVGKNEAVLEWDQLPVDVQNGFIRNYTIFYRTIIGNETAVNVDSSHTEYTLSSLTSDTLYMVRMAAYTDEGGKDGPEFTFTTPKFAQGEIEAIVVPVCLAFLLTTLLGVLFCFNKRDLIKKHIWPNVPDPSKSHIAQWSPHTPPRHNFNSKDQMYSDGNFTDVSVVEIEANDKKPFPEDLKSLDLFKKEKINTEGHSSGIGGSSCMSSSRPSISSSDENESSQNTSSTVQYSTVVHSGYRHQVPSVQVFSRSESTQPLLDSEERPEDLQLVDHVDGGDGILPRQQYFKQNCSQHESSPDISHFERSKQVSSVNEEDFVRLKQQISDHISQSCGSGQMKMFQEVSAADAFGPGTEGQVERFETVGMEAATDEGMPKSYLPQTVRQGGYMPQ
UniProt P48643: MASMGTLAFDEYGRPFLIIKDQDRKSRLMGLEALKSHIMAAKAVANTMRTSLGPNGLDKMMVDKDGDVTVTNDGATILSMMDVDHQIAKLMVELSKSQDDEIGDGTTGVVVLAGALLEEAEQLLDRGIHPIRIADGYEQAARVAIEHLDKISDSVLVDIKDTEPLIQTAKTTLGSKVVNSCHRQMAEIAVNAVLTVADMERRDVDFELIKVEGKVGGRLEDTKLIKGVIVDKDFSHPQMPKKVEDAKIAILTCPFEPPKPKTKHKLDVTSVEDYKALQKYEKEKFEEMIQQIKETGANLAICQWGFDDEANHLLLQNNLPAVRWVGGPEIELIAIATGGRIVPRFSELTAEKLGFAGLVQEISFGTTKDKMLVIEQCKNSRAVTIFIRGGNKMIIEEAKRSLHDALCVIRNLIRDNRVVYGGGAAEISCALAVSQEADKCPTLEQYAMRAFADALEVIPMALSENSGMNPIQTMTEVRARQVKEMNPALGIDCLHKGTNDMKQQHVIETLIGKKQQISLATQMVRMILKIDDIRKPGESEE
UniProt P51149: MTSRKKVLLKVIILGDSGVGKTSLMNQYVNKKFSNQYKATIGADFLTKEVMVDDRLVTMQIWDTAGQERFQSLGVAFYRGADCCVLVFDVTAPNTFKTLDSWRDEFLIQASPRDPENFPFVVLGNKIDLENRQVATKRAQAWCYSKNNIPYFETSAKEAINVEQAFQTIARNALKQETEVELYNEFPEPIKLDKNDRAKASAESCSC

Assays:
Assay in all cases: affinity purification with mass spectrometry; ABCA3:GFP fusion protein immunoprecipitated from iAEC2 cell lysates with a monoclonal anti-GFP antibody (Invitrogen GF28R) versus IgG control; trypsinization; coprecipitated proteins identified by mass spectrometry (< 1% FDR cutoff)
[1] = target: WT ABCA3:GFP fusion protein (ATP-binding cassette A3 with GFP knocked in at the endogenous stop codon) (human) (UniProt Q99758)
[2] = target: L101P mutant ABCA3:GFP fusion protein (human) (UniProt Q99758)
[3] = target: WT ABCA3:GFP fusion protein (ATP-binding cassette A3 with GFP knocked in at the endogenous stop codon) (human) (UniProt Q99758); remark: listed apart in the source
[4] = target: L101P mutant ABCA3:GFP fusion protein (human) (UniProt Q99758); remark: listed apart in the source

Row | binding [1] | binding [2] | binding [3] | binding [4] | Molecule
1 | binds | – | – | – | glucose transporter SLC2A1 (from UniProt P11166 1-492)
2 | – | – | binds | binds | TMEM30B (protein, UniProt Q3MIR4 1-351) MTWSATARGAHQPDNTAFTQQRLPAWQPLLSASIALPLFFCAGLAFIGLGLGLYYSSNGIKELEYDYTGDPGTGNCSVCAAAGQGRALPPPCSCAWYFSLPELFQGPVYLYYELTNFYQNNRRYGVSRDDAQLSGLPSALRHPVNECAPYQRSAAGLPIAPCGAIANSLFNDSFSLWHQRQPGGPYVEVPLDRSGIAWWTDYHVKFRNPPLVNGSLALAFQGTAPPPNWRRPVYELSPDPNNTGFINQDFVVWMRTAALPTFRKLYARIRQGNYSAGLPRGAYRVNITYNYPVRAFGGHKLLIFSSISWMGGKNPFLGIAYLVVGSLCILTGFVMLVVYIRYQDQDDDDEE
3 | – | – | binds | – | TMED10 (protein, UniProt P49755 32-219) ISFHLPINSRKCLREEIHKDLLVTGAYEISDQSGGAGGLRSHLKITDSAGHILYSKEDATKGKFAFTTEDYDMFEVCFESKGTGRIPDQLVILDMKHGVEAKNYEEIAKVEKLKPLEVELRRLEDLSESIVNDFAYMKKREEEMRDTNESTNTRVLYFSIFSMFCLIGLATWQVFYLRRFFKAKKLIE
4 | – | – | binds | – | TRAP, a TNF1-associated chaperone (protein, UniProt Q12931 60-704) STQTAEDKEEPLHSIISSTESVQGSTSKHEFQAETKKLLDIVARSLYSEKEVFIRELISNASDALEKLRHKLVSDGQALPEMEIHLQTNAEKGTITIQDTGIGMTQEELVSNLGTIARSGSKAFLDALQNQAEASSKIIGQFGVGFYSAFMVADRVEVYSRSAAPGSLGYQWLSDGSGVFEIAEASGVRTGTKIIIHLKSDCKEFSSEARVRDVVTKYSNFVSFPLYLNGRRMNTLQAIWMMDPKDVREWQHEEFYRYVAQAHDKPRYTLHYKTDAPLNIRSIFYVPDMKPSMFDVSRELGSSVALYSRKVLIQTKATDILPKWLRFIRGVVDSEDIPLNLSRELLQESALIRKLRDVLQQRLIKFFIDQSKKDAEKYAKFFEDYGLFMREGIVTATEQEVKEDIAKLLRYESSALPSGQLTSLSEYASRMRAGTRNIYYLCAPNRHLAEHSPYYEAMKKKDTEVLFCFEQFDELTLLHLREFDKKKLISVETDIVVDHYKEEKFEDRSPAAECLSEKETEELMAWMRNVLGSRVTNVKVTLRLDTHPAMVTVLEMGAARHFLRMQQLAKTQEERAQLLQPTLEINPRHALIKKLNQLRASEPGLAQLLVDQIYENAMIAAGLVDDPRAMVGRLNELLVKALERH
5 | – | – | binds | binds | STXBP2 (protein, UniProt Q15833 1-593) MAPSGLKAVVGEKILSGVIRSVKKDGEWKVLIMDHPSMRILSSCCKMSDILAEGITIVEDINKRREPIPSLEAIYLLSPTEKSVQALIKDFQGTPTFTYKAAHIFFTDTCPEPLFSELGRSRLAKVVKTLKEIHLAFLPYEAQVFSLDAPHSTYNLYCPFRAEERTRQLEVLAQQIATLCATLQEYPAIRYRKGPEDTAQLAHAVLAKLNAFKADTPSLGEGPEKTRSQLLIMDRAADPVSPLLHELTFQAMAYDLLDIEQDTYRYETTGLSEAREKAVLLDEDDDLWVELRHMHIADVSKKVTELLRTFCESKRLTTDKANIKDLSQILKKMPQYQKELNKYSTHLHLADDCMKHFKGSVEKLCSVEQDLAMGSDAEGEKIKDSMKLIVPVLLDAAVPAYDKIRVLLLYILLRNGVSEENLAKLIQHANVQAHSSLIRNLEQLGGTVTNPGGSGTSSRLEPRERMEPTYQLSRWTPVIKDVMEDAVEDRLDRNLWPFVSDPAPTASSQAAVSARFGHWHKNKAGIEARAGPRLIVYVMGGVAMSEMRAAYEVTRATEGKWEVLIGSSHILTPTRFLDDLKALDKKLEDIALP
6 | – | – | binds | binds | TMEM30A (protein, UniProt Q9NV96 1-361) MAMNYNAKDEVDGGPPCAPGGTAKTRRPDNTAFKQQRLPAWQPILTAGTVLPIFFIIGLIFIPIGIGIFVTSNNIREIEIDYTGTEPSSPCNKCLSPDVTPCFCTINFTLEKSFEGNVFMYYGLSNFYQNHRRYVKSRDDSQLNGDSSALLNPSKECEPYRRNEDKPIAPCGAIANSMFNDTLELFLIGNDSYPIPIALKKKGIAWWTDKNVKFRNPPGGDNLEERFKGTTKPVNWLKPVYMLDSDPDNNGFINEDFIVWMRTAALPTFRKLYRLIERKSDLHPTLPAGRYSLNVTYNYPVHYFDGRKRMILSTISWMGGKNPFLGIAYIAVGSISFLLGVVLLVINHKYRNSSNTADITI

The next lines start with the molecule.

Row | Molecule | binding [1] | binding [2] | binding [3] | binding [4]
7 | IL-6 signal transducer, IL6ST (from UniProt P40189 23-918) | binds | – | – | –
8 | CCT5 (from UniProt P48643 1-541) | – | binds | – | –
9 | RAB7A (from UniProt P51149 1-207) | binds | binds | – | –
10 | GIPC1 (protein, UniProt O14908 1-333) MPLGLGRRKKAPPLVENEEAEPGRGGLGVGEPGPLGGGGSGGPQMGLPPPPPALRPRLVFHTQLAHGSPTGRIEGFTNVKELYGKIAEAFRLPTAEVMFCTLNTHKVDMDKLLGGQIGLEDFIFAHVKGQRKEVEVFKSEDALGLTITDNGAGYAFIKRIKEGSVIDHIHLISVGDMIEAINGQSLLGCRHYEVARLLKELPRGRTFTLKLTEPRKAFDMISQRSAGGRPGSGPQLGTGRGTLRLRSRGPATVEDLPSAFEEKAIEKVDDLLESYMGIRDTELAATMVELGKDKRNPDELAEALDERLGDFAFPDEFVFDVWGAIGDAKVGRY | – | – | binds | binds
11 | ATP11A (protein, UniProt P98196 1-1134) MDCSLVRTLVHRYCAGEENWVDSRTIYVGHREPPPGAEAYIPQRYPDNRIVSSKYTFWNFIPKNLFEQFRRVANFYFLIIFLVQLIIDTPTSPVTSGLPLFFVITVTAIKQGYEDWLRHKADNAMNQCPVHFIQHGKLVRKQSRKLRVGDIVMVKEDETFPCDLIFLSSNRGDGTCHVTTASLDGESSHKTHYAVQDTKGFHTEEDIGGLHATIECEQPQPDLYKFVGRINVYSDLNDPVVRPLGSENLLLRGATLKNTEKIFGVAIYTGMETKMALNYQSKSQKRSAVEKSMNAFLIVYLCILISKALINTVLKYMWQSEPFRDEPWYNQKTESERQRNLFLKAFTDFLAFMVLFNYIIPVSMYVTVEMQKFLGSYFITWDEDMFDEETGEGPLVNTSDLNEELGQVEYIFTDKTGTLTENNMEFKECCIEGHVYVPHVICNGQVLPESSGIDMIDSSPSVNGREREELFFRALCLCHTVQVKDDDSVDGPRKSPDGGKSCVYISSSPDEVALVEGVQRLGFTYLRLKDNYMEILNRENHIERFELLEILSFDSVRRRMSVIVKSATGEIYLFCKGADSSIFPRVIEGKVDQIRARVERNAVEGLRTLCVAYKRLIQEEYEGICKLLQAAKVALQDREKKLAEAYEQIEKDLTLLGATAVEDRLQEKAADTIEALQKAGIKVWVLTGDKMETAAATCYACKLFRRNTQLLELTTKRIEEQSLHDVLFELSKTVLRHSGSLTRDNLSGLSADMQDYGLIIDGAALSLIMKPREDGSSGNYRELFLEICRSCSAVLCCRMAPLQKAQIVKLIKFSKEHPITLAIGDGANDVSMILEAHVGIGVIGKEGRQAARNSDYAIPKFKHLKKMLLVHGHFYYIRISELVQYFFYKNVCFIFPQFLYQFFCGFSQQTLYDTAYLTLYNISFTSLPILLYSLMEQHVGIDVLKRDPTLYRDVAKNALLRWRVFIYWTLLGLFDALVFFFGAYFVFENTTVTSNGQIFGNWTFGTLVFTVMVFTVTLKLALDTHYWTWINHFVIWGSLLFYVVFSLLWGGVIWPFLNYQRMYYVFIQMLSSGPAWLAIVLLVTISLLPDVLKKVLCRQLWPTATERVQTKSQCLSVEQSTIFMLSQTSSSLSF | – | – | binds | binds
12 | CCT2 (protein, UniProt P78371 1-535) MASLSLAPVNIFKAGADEERAETARLTSFIGAIAIGDLVKSTLGPKGMDKILLSSGRDASLMVTNDGATILKNIGVDNPAAKVLVDMSRVQDDEVGDGTTSVTVLAAELLREAESLIAKKIHPQTIIAGWREATKAAREALLSSAVDHGSDEVKFRQDLMNIAGTTLSSKLLTHHKDHFTKLAVEAVLRLKGSGNLEAIHIIKKLGGSLADSYLDEGFLLDKKIGVNQPKRIENAKILIANTGMDTDKIKIFGSRVRVDSTAKVAEIEHAEKEKMKEKVERILKHGINCFINRQLIYNYPEQLFGAAGVMAIEHADFAGVERLALVTGGEIASTFDHPELVKLGSCKLIEEVMIGEDKLIHFSGVALGEACTIVLRGATQQILDEAERSLHDALCVLAQTVKDSRTVYGGGCSEMLMAHAVTQLANRTPGKEAVAMESYAKALRMLPTIIADNAGYDSADLVAQLRAAHSEGNTTAGLDMREGTIGDMAILGITESFQVKRQVLLSAAEAAEVILRVDNIIKAAPRKRVPDHHPC | – | – | – | binds
